Measured values published in PMC6527568.
Results are given in words; binding and its absence hold for the method and conditions named. In cells and extracts the contact can be indirect. Some binding calls cover weakened binding; strength is not graded here. Tags and fused reporters may be left off the sequences shown.

By UniProt entry, the sequences of proteins in these tests, tags left out.
UniProt P23696: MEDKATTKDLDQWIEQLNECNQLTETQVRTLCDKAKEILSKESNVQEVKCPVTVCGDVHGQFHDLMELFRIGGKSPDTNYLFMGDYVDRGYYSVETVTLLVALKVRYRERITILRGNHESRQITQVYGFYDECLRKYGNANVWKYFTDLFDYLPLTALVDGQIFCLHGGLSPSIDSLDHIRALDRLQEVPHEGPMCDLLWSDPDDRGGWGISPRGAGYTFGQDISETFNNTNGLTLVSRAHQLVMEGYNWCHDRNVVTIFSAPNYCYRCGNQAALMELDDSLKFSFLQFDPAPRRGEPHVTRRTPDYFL

Target: 2xFLAG-tagged full-length Mts (Drosophila) (UniProt P23696)
Experiment: co-IP; extracts of S2 cells transfected with three constructs together (V5-Vtd, V5-Tws and 2xFLAG-Mts)

B1: V5-tagged-Tws (protein, UniProt P36872 1-499)
chain: MGRWGRQSPVLEPPDPQMQTTPPPPTLPPRTFMRQSSITKIGNMLNTAININGAKKPASNGEASWCFSQIKGALDDDVTDADIISCVEFNHDGELLATGDKGGRVVIFQRDPASKAANPRRGEYNVYSTFQSHEPEFDYLKSLEIEEKINKIRWLQQKNPVHFLLSTNDKTVKLWKVSERDKSFGGYNTKEENGLIRDPQNVTALRVPSVKQIPLLVEASPRRTFANAHTYHINSISVNSDQETFLSADDLRINLWHLEVVNQSYNIVDIKPTNMEELTEVITAAEFHPTECNVFVYSSSKGTIRLCDMRSAALCDRHSKQFEEPENPTNRSFFSEIISSISDVKLSNSGRYMISRDYLSIKVWDLHMETKPIETYPVHEYLRAKLCSLYENDCIFDKFECCWNGKDSSIMTGSYNNFFRVFDRNSKKDVTLEASRDIIKPKTVLKPRKVCTGGKRKKDEISVDCLDFNKKILHTAWHPEENIIAVAATNNLFIFQDKF
binding: binds
